{
  "source": "paper doi:10.1101/2025.02.12.637793",
  "key": {"NHE2-GFP (human)": {"biological_target": "T1, NHE2-GFP (human) (UniProt Q9UBY0)", "T1 sequence": "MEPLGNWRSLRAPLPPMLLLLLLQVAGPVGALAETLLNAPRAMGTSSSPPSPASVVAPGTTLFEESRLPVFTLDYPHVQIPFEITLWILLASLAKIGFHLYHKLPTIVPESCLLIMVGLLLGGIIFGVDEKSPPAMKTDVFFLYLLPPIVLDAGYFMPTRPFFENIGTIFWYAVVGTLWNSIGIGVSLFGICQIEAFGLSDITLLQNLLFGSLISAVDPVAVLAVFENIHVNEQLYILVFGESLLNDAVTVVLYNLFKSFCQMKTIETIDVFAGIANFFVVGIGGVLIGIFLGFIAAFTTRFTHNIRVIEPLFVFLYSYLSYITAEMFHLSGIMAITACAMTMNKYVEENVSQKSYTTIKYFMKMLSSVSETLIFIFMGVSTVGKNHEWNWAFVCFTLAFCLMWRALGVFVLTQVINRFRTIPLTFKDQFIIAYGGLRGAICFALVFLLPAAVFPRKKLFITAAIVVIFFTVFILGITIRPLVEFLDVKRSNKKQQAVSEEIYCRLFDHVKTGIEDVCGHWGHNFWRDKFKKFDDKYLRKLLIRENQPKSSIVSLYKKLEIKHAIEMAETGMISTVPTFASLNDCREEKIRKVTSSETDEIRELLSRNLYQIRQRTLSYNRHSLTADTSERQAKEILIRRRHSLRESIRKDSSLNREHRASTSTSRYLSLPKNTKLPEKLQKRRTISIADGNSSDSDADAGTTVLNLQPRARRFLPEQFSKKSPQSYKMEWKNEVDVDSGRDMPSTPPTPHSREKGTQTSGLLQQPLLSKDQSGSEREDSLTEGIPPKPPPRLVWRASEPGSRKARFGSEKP", "test": "co-IP"}, "cystinosin-DsRed (human)": {"biological_target": "cystinosin-DsRed (human)", "test": "co-IP"}},
  "note": "These are yes or no findings as the source states them, for the method shown. Binding seen in cells or lysates may run through a third protein. Binding calls can cover weak binding; strength is not graded here. Tags and fused reporters may be left off the sequences shown.",
  "data": [
    {"molecule": "cystinosin-DsRed (human)", "values": [
      {"measurement": "binding", "setting": "NHE2-GFP (human)", "result": "binds"}
    ]},
    {"molecule": "NHE2-GFP (protein, UniProt Q9UBY0 1-812) MEPLGNWRSLRAPLPPMLLLLLLQVAGPVGALAETLLNAPRAMGTSSSPPSPASVVAPGTTLFEESRLPVFTLDYPHVQIPFEITLWILLASLAKIGFHLYHKLPTIVPESCLLIMVGLLLGGIIFGVDEKSPPAMKTDVFFLYLLPPIVLDAGYFMPTRPFFENIGTIFWYAVVGTLWNSIGIGVSLFGICQIEAFGLSDITLLQNLLFGSLISAVDPVAVLAVFENIHVNEQLYILVFGESLLNDAVTVVLYNLFKSFCQMKTIETIDVFAGIANFFVVGIGGVLIGIFLGFIAAFTTRFTHNIRVIEPLFVFLYSYLSYITAEMFHLSGIMAITACAMTMNKYVEENVSQKSYTTIKYFMKMLSSVSETLIFIFMGVSTVGKNHEWNWAFVCFTLAFCLMWRALGVFVLTQVINRFRTIPLTFKDQFIIAYGGLRGAICFALVFLLPAAVFPRKKLFITAAIVVIFFTVFILGITIRPLVEFLDVKRSNKKQQAVSEEIYCRLFDHVKTGIEDVCGHWGHNFWRDKFKKFDDKYLRKLLIRENQPKSSIVSLYKKLEIKHAIEMAETGMISTVPTFASLNDCREEKIRKVTSSETDEIRELLSRNLYQIRQRTLSYNRHSLTADTSERQAKEILIRRRHSLRESIRKDSSLNREHRASTSTSRYLSLPKNTKLPEKLQKRRTISIADGNSSDSDADAGTTVLNLQPRARRFLPEQFSKKSPQSYKMEWKNEVDVDSGRDMPSTPPTPHSREKGTQTSGLLQQPLLSKDQSGSEREDSLTEGIPPKPPPRLVWRASEPGSRKARFGSEKP", "values": [
      {"measurement": "binding", "setting": "cystinosin-DsRed (human)", "result": "binds"}
    ]}
  ]
}
